“And” between values parts separate entries of the source, which are not always exact repeats. Equal values may be shown once.
Key:
[1] = Concentration of bromelain and acetylcysteine in sputum after aerosol; details: AS
[2] = as above; parameters: species or system human; details: SS
[3] = nebulised NAC 10 mg/ml over 25 minutes
[4] = nebulised NAC 20 mg/ml over 25 minutes

SMILES: CC(=O)N[C@@H](CS)C(=O)O [NAC, N-acetylcysteine]
- Concentration of NAC in sputa [1, 3]: 2.75 ± 0.143 mg/mL
- Concentration of NAC in sputa [1, 4]: 2.90 ± 0.210 mg/mL
- Concentration of NAC in sputa [2, 3]: 1.85 mg/mL and 1.85 ± 0.310 mg/mL
- Concentration of NAC in sputa [2, 4]: 2.37 mg/mL and 2.367 ± 0.133 mg/mL

From patent US20250009856A1, “METHODS FOR TREATING RESPIRATORY DISEASES” (MUCPharm Pty Ltd, priority 2021, published 2025)
